In the supplement of paper PMC3334620:
The full ranking holds about 33,000 sequences; the median of “E-score (-0.5 to 0.5)” is about -8e-05, and the highest 2% start at about 0.23. This is one part of the list.

Biological target: T1, Nrg2 (UniProt P38082)
T1 sequence: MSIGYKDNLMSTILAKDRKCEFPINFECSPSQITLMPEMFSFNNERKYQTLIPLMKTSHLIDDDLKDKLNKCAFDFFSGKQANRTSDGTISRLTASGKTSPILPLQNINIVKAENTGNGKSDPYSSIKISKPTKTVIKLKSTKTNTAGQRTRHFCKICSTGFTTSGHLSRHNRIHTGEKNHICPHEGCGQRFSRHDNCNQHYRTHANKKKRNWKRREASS
Test: PBM E-score (8-mer binding enrichment) (E-score (-0.5 to 0.5)); higher = stronger / more preferred TF binding
Details: protein concentration: 100 nM; construct: GST-full length
Description: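 Universal 'all 10-mer' protein binding microarrays (Agilent AMADID 015681) probed with GST-tagged S. cerevisiae TFs (full-length or DBD) made by in vitro transcription/translation (PURExpress), about 100-200 nM. Bound TF was detected with fluorescent anti-GST. Each ungapped 8-mer (which stands for itself and its reverse complement) is scored by the PBM enrichment score (E-score), a modified Wilcoxon-Mann-Whitney statistic from -0.5 to +0.5, computed with the Universal PBM Analysis Suite. Scale: above 0.35 generally sequence-specific binding.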

Compared with AGTCCAGG, ACAGAGAC is higher in “PBM E-score” value: 0.00474 for the first, 0.00483 for the second.

Going from AGGACTGA to AGTCATTA, the “PBM E-score” value falls from -0.19 to -0.273.

First: CGCTAAGC
Second: ACACTCGC
The “PBM E-score” value of the first is lower: -0.027 for the first, 0.141 for the second.

First: GTAGGTCA
Second: CGGTGGTA
The “PBM E-score” value of the first is lower: -0.162 for the first, 0.0251 for the second.

Compared with GAGGCAGC, GCCAATCA is lower in “PBM E-score” value: -0.126 for the first, -0.153 for the second.

Compared with GACATCCA, GAGTTGGA is higher in “PBM E-score” value: -0.133 for the first, 0.0898 for the second.

First: GGGGGAAC
Second: CATATCGC
The “PBM E-score” value of the first is lower: -0.362 for the first, -0.0386 for the second.

Compared with ACCTGCAC, GGTTACAC is lower in “PBM E-score” value: -0.0825 for the first, -0.165 for the second.

Compared with GAAATTGC, CCCGAGAC is lower in “PBM E-score” value: 0.0668 for the first, -0.105 for the second.

First: AAACCACG
Second: ATTTGACG
The “PBM E-score” value of the first is lower: 9e-05 for the first, 0.075 for the second.

Going from CCTCCCTC to GCAACTCC, the “PBM E-score” value falls from 0.0294 to -0.0934.

First: ATCAGATG
Second: GAACCCAA
The “PBM E-score” value of the first is lower: -0.0502 for the first, 0.0482 for the second.

First: GGATCTCA
Second: AATGCGGC
The “PBM E-score” value of the first is higher: 0.0559 for the first, -0.00108 for the second.

Going from CGTGATAC to GTATGGGA, the “PBM E-score” value falls from -0.00164 to -0.244.

First: GCGCGAAC
Second: CAAAGTCG
The “PBM E-score” value of the first is higher: 0.145 for the first, -0.0236 for the second.

First: AGTGGTAG
Second: ATTGTGCC
The “PBM E-score” value of the first is lower: -0.0648 for the first, 0.0165 for the second.

Compared with ATGGTAGG, TCCAACGA is lower in “PBM E-score” value: -0.00768 for the first, -0.162 for the second.

First: ACCGAAAC
Second: CTAGATTA
The “PBM E-score” value of the first is lower: 0.0442 for the first, 0.129 for the second.

Compared with CAGTACGA, CTTAGGGC is lower in “PBM E-score” value: 0.206 for the first, -0.127 for the second.

Compared with CTATAAAC, CTACGCCC is higher in “PBM E-score” value: -0.086 for the first, -0.00369 for the second.

Going from AACGGGAT to TAGTTCGA, the “PBM E-score” value rises from 0.0387 to 0.155.

First: ACCCTTTG
Second: CCACCAGG
The “PBM E-score” value of the first is higher: 0.133 for the first, -0.258 for the second.

Compared with AGTAGGGC, CGTTTTAC is lower in “PBM E-score” value: -0.0917 for the first, -0.207 for the second.

First: GTGAGTAA
Second: ACCGGGGG
The “PBM E-score” value of the first is higher: 0.061 for the first, -0.411 for the second.

Going from GTCCTAAA to ACGTCGCC, the “PBM E-score” value falls from -0.052 to -0.156.

First: GTATAATA
Second: ATTGATTA
The “PBM E-score” value of the first is lower: 0.163 for the first, 0.207 for the second.

Compared with ATTAAATC, GTGTACAC is lower in “PBM E-score” value: 0.165 for the first, -0.0231 for the second.

First: TACAGGCA
Second: AGGGCATA
The “PBM E-score” value of the first is lower: 0.00256 for the first, 0.057 for the second.

First: CGTGTTAC
Second: ACCCAGCT
The “PBM E-score” value of the first is higher: 0.0578 for the first, -0.104 for the second.

Going from ACGCCGGG to AGATCATG, the “PBM E-score” value rises from -0.124 to 0.0864.

Compared with AGCCAGAG, AGGTCACC is higher in “PBM E-score” value: -0.251 for the first, -0.134 for the second.

Compared with CAATGTAG, GACGTAGA is lower in “PBM E-score” value: -0.0917 for the first, -0.154 for the second.

First: AATAATAC
Second: AAGTGCAC
The “PBM E-score” value of the first is lower: 0.102 for the first, 0.139 for the second.

Compared with CCTGTCTC, GCGACTTA is lower in “PBM E-score” value: -0.0655 for the first, -0.215 for the second.

Going from ACACGCTA to CGATAAAG, the “PBM E-score” value rises from -0.0187 to 0.00251.

Compared with CTCCGTAC, AGTCATGA is higher in “PBM E-score” value: 0.0676 for the first, 0.0922 for the second.

Going from ATACGGCA to ACGTGTAT, the “PBM E-score” value falls from 0.193 to 0.173.

First: AACACTAG
Second: CCGCGCTA
The “PBM E-score” value of the first is lower: 0.152 for the first, 0.163 for the second.

First: CTAGATAA
Second: AATTGCAT
The “PBM E-score” value of the first is lower: -0.0287 for the first, 0.0011 for the second.

First: ATCCTCTG
Second: ATGGCCCC
The “PBM E-score” value of the first is higher: 0.0437 for the first, -0.285 for the second.

First: GCGATACA
Second: CGAAGTAA
The “PBM E-score” value of the first is lower: -0.00403 for the first, 0.155 for the second.

Going from ATATCAAT to ACATCTGA, the “PBM E-score” value falls from 0.212 to -0.219.

First: CAGTGGCA
Second: CAGAATTA
The “PBM E-score” value of the first is lower: -0.169 for the first, -0.0457 for the second.

Compared with AGGGATGA, GAGGAAGA is lower in “PBM E-score” value: 0.0313 for the first, -0.0296 for the second.

Compared with CAGCAAGG, ACAAATGT is higher in “PBM E-score” value: -0.0834 for the first, 0.00952 for the second.

Compared with GTTCCATA, CACCTACG is lower in “PBM E-score” value: 0.117 for the first, -0.158 for the second.

Compared with AGCTGCAT, CGCGGGTA is higher in “PBM E-score” value: -0.0431 for the first, 0.143 for the second.

First: AACGACTG
Second: TTCCAAAA
The “PBM E-score” value of the first is higher: -0.0845 for the first, -0.107 for the second.

First: ATACTAGA
Second: AGTAGGAT
The “PBM E-score” value of the first is higher: 0.0499 for the first, -0.0316 for the second.

Going from AAATTTCC to ATGAGTTA, the “PBM E-score” value falls from 0.113 to -0.0464.

First: CATTGTCA
Second: GACTTCTC
The “PBM E-score” value of the first is higher: 0.132 for the first, 0.0281 for the second.

Compared with CGAAAGCA, AGGTAGAC is lower in “PBM E-score” value: 0.0802 for the first, -0.0147 for the second.

First: ATAGGGTC
Second: CAACGTGG
The “PBM E-score” value of the first is higher: 0.212 for the first, -0.0468 for the second.

Compared with ACCATTAC, CCAACCCC is higher in “PBM E-score” value: -0.0379 for the first, 0.0404 for the second.

Going from TGCACCCA to GAGCGGAC, the “PBM E-score” value falls from 0.0184 to -0.162.

Compared with TATATCGA, ATTCACTA is lower in “PBM E-score” value: 0.278 for the first, 0.175 for the second.

First: CCAGGACC
Second: GTGTACCA
The “PBM E-score” value of the first is lower: -0.11 for the first, -0.0651 for the second.

Compared with GATGTGGC, CTCGCGTA is lower in “PBM E-score” value: -0.114 for the first, -0.169 for the second.

Compared with TAGTATAA, GCGTCCCA is lower in “PBM E-score” value: -0.0423 for the first, -0.104 for the second.

First: AAAGCCCT
Second: CGTAAGAC
The “PBM E-score” value of the first is higher: -0.02 for the first, -0.276 for the second.

Compared with ATCTGGGG, TACGCAGA is higher in “PBM E-score” value: -0.14 for the first, 0.132 for the second.

Compared with TGAAACAA, AACCTCCG is lower in “PBM E-score” value: 0.0421 for the first, -0.0844 for the second.

First: GGACAACC
Second: CGAGGCCC
The “PBM E-score” value of the first is higher: -0.0218 for the first, -0.136 for the second.

Going from CCCTGAGA to CCAACGTA, the “PBM E-score” value falls from 0.235 to -0.0757.

Compared with ATCCATGC, GGTTTAGA is higher in “PBM E-score” value: -0.131 for the first, -0.0936 for the second.

Compared with AAGATCCG, ACTGTGCC is higher in “PBM E-score” value: -0.188 for the first, 0.044 for the second.

Compared with CTAACGAC, AAAGCTTT is higher in “PBM E-score” value: -0.00279 for the first, 0.0426 for the second.

First: ACTCAGAC
Second: AGTACGGA
The “PBM E-score” value of the first is lower: 0.0411 for the first, 0.122 for the second.

First: ATAGTCTC
Second: AAAACAGT
The “PBM E-score” value of the first is lower: -0.0736 for the first, 0.199 for the second.

Going from ACAGCCCG to ACGCCTTG, the “PBM E-score” value rises from -0.152 to -0.00755.

Compared with AGTCTGAA, CTGATGGA is lower in “PBM E-score” value: -0.0298 for the first, -0.033 for the second.

Going from AGAGAGAA to AAAAGGCC, the “PBM E-score” value falls from 0.0153 to -0.197.

First: CCGGCTGC
Second: CAATAAAA
The “PBM E-score” value of the first is lower: -0.173 for the first, 0.065 for the second.

First: AATCTCTG
Second: CTGTAGAA
The “PBM E-score” value of the first is lower: -0.0668 for the first, 0.0663 for the second.

First: AGAGGAAA
Second: GAGTCAGA
The “PBM E-score” value of the first is higher: 0.0137 for the first, -0.0246 for the second.

First: AGTGTTAA
Second: AAAAACGG
The “PBM E-score” value of the first is higher: 0.114 for the first, 0.0162 for the second.

Going from CCAATTAA to ACTAACAG, the “PBM E-score” value rises from 0.0533 to 0.118.

Going from AACTCCGA to ACACAGAG, the “PBM E-score” value falls from -0.0256 to -0.0315.

First: CCGTTATA
Second: GATAGCAA
The “PBM E-score” value of the first is lower: -0.0815 for the first, 0.0872 for the second.

First: ATGCATTA
Second: AGGACAAT
The “PBM E-score” value of the first is higher: 0.177 for the first, 0.0916 for the second.

First: ACTGAGCC
Second: CAGAGAGA
The “PBM E-score” value of the first is lower: -0.0602 for the first, 0.0811 for the second.

Going from AAATCCAA to GAAGGAGA, the “PBM E-score” value falls from 0.00036 to -0.0732.

First: ATAACTGG
Second: CTAGCAAG
The “PBM E-score” value of the first is higher: 0.0459 for the first, -0.0594 for the second.

Going from CAAACCTG to GGAGAACA, the “PBM E-score” value falls from 0.0357 to -0.0349.

Compared with GGTAAAAC, ACAATCCG is higher in “PBM E-score” value: -0.165 for the first, 0.00449 for the second.

First: GAGGCCTA
Second: AGGGCGCA
The “PBM E-score” value of the first is lower: -0.0547 for the first, 0.0346 for the second.
